Measured values from US20100144601A1 (Janssen / Centocor, published 2010).
Changes are numbered by the printed parent chain. No constants are given. Whether binding was seen depends on the method and setting. Some entries that bind do so weakly or less than the wild type. Values belong to the binder of their own block, whether it stands above or below them.

By UniProt entry, the sequences of proteins in these tests, tags left out. Residues count along the entry.
UniProt P01375, residues 77-233: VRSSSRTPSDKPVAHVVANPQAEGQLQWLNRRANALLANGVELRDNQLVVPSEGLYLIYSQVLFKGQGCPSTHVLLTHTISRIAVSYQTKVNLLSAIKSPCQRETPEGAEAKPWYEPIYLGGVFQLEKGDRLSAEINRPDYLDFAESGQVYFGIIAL

Biological target: T1, recombinant TNFα, biotinylated (human, UniProt P01375 77-233, biotinylated using sulfo-NHS-LC-Biotin (sites not given))
T1 construct: human is stated in the abstract and claims; also called biotinylated TNFα; human TNFα
Experiment: ELISA of lysates on biotinylated TNFα on streptavidin plate
Procedure: Maxisorp plates (Nunc) were coated with 0.5 μg of streptavidin, washed with TBST, and bound to 100 ng of biotinylated TNFα or 200 ng of biotinylated human serum albumin before being blocked with Starting Block (Thermo Scientific). Clarified lysates diluted 1:1 in Starting Block were added to the plates and allowed to bind for 1 hour before being washed with TBST. Detection of bound Tencon was accomplished using an anti-HIS-HRP antibody (Qiagen).

B1: Clone No. 103 (designed binder)
chain: LPAPKNLVVSEVTEDSLRLSWSRWKIGFDSFLIQYQESEKVGEAINLTVPGSERSYDLTGLKPGTEYTVSIYGVTMPDCMTPLSAEFTT
binding: binds

B2: Clone No. 100 (designed binder)
chain: LPAPKNLVVSEVTEDSLRLSWTGQQSRFDSFLIQYQESEKVGEAINLTVPGSERSYDLTGLKPGTEYTVSIYGVNSRTEILPLSAEFTT
binding: binds

B3: Clone No. 19 (designed binder)
chain: B2 chain with T22N, G23K, Q24L, Q25D, R27G, N75Y, S76N, R77S, I80L, L81G
binding: binds

B7: Clone No. 50 (designed binder)
chain: LPAPKNLVVSEVTEDSLRLSWRQRYMVFDSFLIQYQESEKVGEAINLTVPGSERSYDLTGLKPGTEYTVSIYGVLIAMLVSPLSAEFTT
binding: binds

B8: Clone No. 33 (designed binder)
chain: LPAPKNLVVSEVTEDSLRLSWETHDTNFDSFLIQYQESEKVGEAINLTVPGSERSYDLTGLKPGTEYTVSIYGVGQLDDNLPLSAEFTT
binding: binds

B9: Clone No. 101 (designed binder)
chain: LPAPKNLVVSEVTEDSLRLSWLVLGAMFDSFLIQYQESEKVGEAINLTVPGSERSYDLTGLKPGTEYTVSIYGVMLKCPARPLSAEFTT
binding: binds

B13: Clone No. 55 (designed binder)
chain: LPAPKNLVVSEVTEDSLRLSWREKRLRFDSFLIQYQESEKVGEAINLTVPGSERSYDLTGLKPGTEYTVSIYGVVPTSALSPLSAEFTT
binding: binds

B14: Clone No. 104 (designed binder)
chain: LPAPKNLVVSEVTEDSLRLSWSVLIWQFDSFLIQYQESEKVGEAINLTVPGSERSYDLTGLKPGTEYTVSIYGVFDGYQCYPLSAEFTT
binding: binds

B15: Clone No. 27 (designed binder)
chain: LPAPKNLVVSEVTEDSLRLSWCLAVSPFDSFLIQYQESEKVGEAINLTVPGSERSYDLTGLKPGTEYTVSIYGVCTTVTYHPLSAEFTT
binding: binds

B17: Clone No. 29 (designed binder)
chain: LPAPKNLVVSEVTEDSLPLSWSCSFECFDSFLIQYQESEKVGEAINLTVPGSERSYDLTGLKPGTEYTVSIYGVDRRRPMRPLSAEFTT
binding: binds

B19: Clone No. 18 (designed binder)
chain: B8 chain with T23S, H24R, D25Q, T26A, N27Y, Q76N, D78T, D79Y, N80L, L81H
binding: binds

B20: Clone No. 21 (designed binder)
chain: B13 chain with R22N, E23A, K24P, R25L, R27W, V75G, P76N, T77L, A79V, S81Q
binding: binds

B23: Clone No. 38 (designed binder)
chain: LPAPKNLVVSEVTEDSLRLSWSAWSFYFDSFLIQYQESEKVGEAINLTVPGSERSYDLTGLKPGTEYTVSIYGVGNLTYLHPLSAEFTT
binding: binds

B24: Clone No. 24 (designed binder)
chain: LPAPKNLVVSEVTEDSLRLSWNCTTTFFDSFLIQYQESEKVGEAINLTVPGSERSYDLTGLKPGTEYTVSIYGVCWSYYMSPLSAEFTT
binding: binds

B25: Clone No. 22 (designed binder)
chain: LPAPKNLVVSEVTEDSLRLSWDPWYYYFDSFLIQYQESEKVGEAINLTVSGSERSYDLTGLKPGTEYTVSIYGVTRNYVLTPLSAEFTT
binding: binds

B26: Clone No. 46 (designed binder)
chain: B23 chain with S22H, A23P, S25W, Y27L, N76S, L77N, T78Y, Y79M, L80F
binding: binds

B28: Clone No. 30 (designed binder)
chain: B23 chain with N76R, L77N, T78Y, Y79T, L80F, H81R
binding: binds

B29: Clone No. 26 (designed binder)
chain: B25 chain with P23S, Y26P, Y27S, S50P, T75R, R76P, Y78F, V79F, L80M, T81G
binding: binds

B33: Clone No. 23 (designed binder)
chain: LPAPKNLVVSEVTEDSLRLSWTLYCRYFDSFLIQYQESEKVGEAINLTVPGSERSYDLTGLKPGTEYTVSIYGVTPPCGYAPLSAEFTT
binding: binds

B35: Clone No. 43 (designed binder)
chain: B8 chain with T23S, H24R, D25A, T26S, N27Y, D78A, D79V, N80I, L81H
binding: binds

B36: Clone No. 31 (designed binder)
chain: B8 chain with E22L, T23Q, D25C, T26A, N27S, D78A, D79V, N80I, L81H
binding: binds

B37: Clone No. 32 (designed binder)
chain: B8 chain with T23S, D25G, T26S, N27Y, D78A, D79V, N80I, L81R
binding: binds

B40: Clone No. 56 (designed binder)
chain: LPAPKNLVVSEVTEDSLRLSWCGYGKMFDSFLIQYQESEKVGEAINLTVPGSERSYDLTGLKPGTEYTVSIYGVFILPKLFPLSAEFTT
binding: binds

B41: Clone No. 53 (designed binder)
chain: LPAPKNLVVSEVTEDSLRLSWTAKYWLFDSFLIQYQESEKVGEAINLTVPGSERSYDLTGLKPGTEYTVSIYGVRPIVLPNPLSAEFTT
binding: binds

B42: Clone No. 39 (designed binder)
chain: LPAPKNLVVSEVTEDSLRLSWESRQAYFDSFLIQYQESEKVGEAINLTVPGSERSYDLTGLKPGTEYTVSIYGVGKNYTFRPLSAEFTT
binding: binds

B43: Clone No. 54 (designed binder)
chain: B42 chain with S23M, R24K, Q25F, A26L, Y27H, G75S, K76S
binding: binds

More lines, now with the values ahead:

binding: binds
B4: Clone No. 28 (designed binder)
chain: B23 chain with S22E, A23C, W24N, S25P, F26C, Y27R, N76S, Y79I, H81Q

binding: binds
B5: Clone No. 20 (designed binder)
chain: B42 chain with R24Q, Q25A, A26S, K76Q, N77L, Y78A, T79V, F80I, R81H

binding: binds
B6: Clone No. 52 (designed binder)
chain: LPAPKNLVVSEVTEDSLRLSWCMRNPIFDSFLIQYQESEKVGEAINLTVPGSERSYDLTGLKPGTEYTVSIYGVNLLRDSHPLSAEFTT

binding: binds
B10: Clone No. 102 (designed binder)
chain: LPAPKNLVVSEVTEDSLRLSWGSRREVFDSFLIQYQESEKVGEAINLTVPGSERSYDLTGLKPGTEYTVSIYGVFTSPMATPLSAEFTT

binding: binds
B11: Clone No. 51 (designed binder)
chain: B10 chain with G22R, S23F, R24P, R25A, E26F, F75P, P78C, M79A, A80Y, T81N

binding: binds
B12: Clone No. 49 (designed binder)
chain: B23 chain with S22I, A23Q, W24P, S25R, G75H, N76W, L77G, T78H, Y79N, H81T

binding: binds
B16: Clone No. 57 (designed binder)
chain: LPAPKNLVVSEVTEDSLRLSWCDLWSSFDSFLIQYQESEKVGEAINLTVPGSERSYDLTGLKPGTKYTVSIYGVKYHYPYPPLSAEFTT

binding: binds
B18: Clone No. 16 (designed binder)
chain: B23 chain with S22K, A23T, W24R, S25Y, F26C, Y27F, G75A, T78F, H81R

binding: binds
B21: Clone No. 37 (designed binder)
chain: B23 chain with S22E, A23S, W24R, S25Q, F26T

binding: binds
B22: Clone No. 25 (designed binder)
chain: B23 chain with S22Q, A23C, W24S, S25V, F26C, Y27R, N76G, Y79V, H81Q

binding: binds
B27: Clone No. 41 (designed binder)
chain: B42 chain with E22S, S23A, R24W, Q25S, A26F

binding: binds
B30: Clone No. 48 (designed binder)
chain: B41 chain with R75G, P76R, I77N, V78Y, P80M, N81S

binding: binds
B31: Clone No. 40 (designed binder)
chain: B42 chain with E22S, S23A, R24W, Q25P, A26F

binding: binds
B32: Clone No. 47 (designed binder)
chain: B25 chain with D22H, Y25W, Y26F, Y27L, S50P, T75G, V79L, L80M, T81S

binding: binds
B34: Clone No. 17 (designed binder)
chain: B23 chain with A23S, W24S, S25H, F26G, Y27H, N76A, T78S, Y79V, L80I

binding: binds
B38: Clone No. 42 (designed binder)
chain: B23 chain with L77N, T78Y, Y79V, L80F, H81K

binding: binds
B39: Clone No. 44 (designed binder)
chain: B41 chain with R75G, P76Q, I77L, V78A, L79V, P80I, N81H

binding: binds
B44: Clone No. 45 (designed binder)
chain: B41 chain with R75G, P76S, I77N, V78Y, L79M, P80F, N81H
